5 targets from the supplement of paper PMC6411743 can be followed below.

Protein sequences, listed by entry. Tags and fused reporters are not part of them. Lines headed by an entry give the natural chain unless they say otherwise; changes in a name come on top.
UniProt P51692: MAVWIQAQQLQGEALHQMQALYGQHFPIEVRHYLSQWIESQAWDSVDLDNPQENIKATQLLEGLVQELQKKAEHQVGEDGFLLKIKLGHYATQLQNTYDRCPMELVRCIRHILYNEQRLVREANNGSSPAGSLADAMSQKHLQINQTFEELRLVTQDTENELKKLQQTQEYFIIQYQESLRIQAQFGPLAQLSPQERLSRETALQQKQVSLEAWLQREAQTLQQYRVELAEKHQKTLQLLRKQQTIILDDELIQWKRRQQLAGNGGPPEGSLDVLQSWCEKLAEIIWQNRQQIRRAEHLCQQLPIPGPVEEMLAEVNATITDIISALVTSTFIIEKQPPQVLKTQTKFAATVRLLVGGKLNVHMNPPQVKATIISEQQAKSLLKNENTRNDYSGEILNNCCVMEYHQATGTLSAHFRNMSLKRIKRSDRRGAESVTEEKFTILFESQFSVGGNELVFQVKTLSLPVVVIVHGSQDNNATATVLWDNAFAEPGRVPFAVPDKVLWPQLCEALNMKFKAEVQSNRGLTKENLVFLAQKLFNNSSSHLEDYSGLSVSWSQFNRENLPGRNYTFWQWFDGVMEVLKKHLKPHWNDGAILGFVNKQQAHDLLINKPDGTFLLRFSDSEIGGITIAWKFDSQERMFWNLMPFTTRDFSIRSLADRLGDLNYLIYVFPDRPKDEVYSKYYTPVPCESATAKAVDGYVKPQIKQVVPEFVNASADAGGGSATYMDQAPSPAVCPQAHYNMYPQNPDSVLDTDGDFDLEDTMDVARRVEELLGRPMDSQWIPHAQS
UniProt P50402: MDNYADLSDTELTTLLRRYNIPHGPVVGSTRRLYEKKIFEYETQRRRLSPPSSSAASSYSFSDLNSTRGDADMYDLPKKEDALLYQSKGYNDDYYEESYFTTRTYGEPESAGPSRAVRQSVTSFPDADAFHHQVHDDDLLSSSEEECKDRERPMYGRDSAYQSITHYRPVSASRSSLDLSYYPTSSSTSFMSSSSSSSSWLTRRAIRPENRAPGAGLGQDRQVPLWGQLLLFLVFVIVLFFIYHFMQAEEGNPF
UniProt P61970, whole entry: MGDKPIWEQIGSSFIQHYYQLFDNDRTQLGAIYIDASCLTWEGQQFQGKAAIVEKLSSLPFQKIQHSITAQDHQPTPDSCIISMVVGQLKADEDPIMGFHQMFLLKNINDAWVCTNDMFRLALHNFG
UniProt P53350, whole entry: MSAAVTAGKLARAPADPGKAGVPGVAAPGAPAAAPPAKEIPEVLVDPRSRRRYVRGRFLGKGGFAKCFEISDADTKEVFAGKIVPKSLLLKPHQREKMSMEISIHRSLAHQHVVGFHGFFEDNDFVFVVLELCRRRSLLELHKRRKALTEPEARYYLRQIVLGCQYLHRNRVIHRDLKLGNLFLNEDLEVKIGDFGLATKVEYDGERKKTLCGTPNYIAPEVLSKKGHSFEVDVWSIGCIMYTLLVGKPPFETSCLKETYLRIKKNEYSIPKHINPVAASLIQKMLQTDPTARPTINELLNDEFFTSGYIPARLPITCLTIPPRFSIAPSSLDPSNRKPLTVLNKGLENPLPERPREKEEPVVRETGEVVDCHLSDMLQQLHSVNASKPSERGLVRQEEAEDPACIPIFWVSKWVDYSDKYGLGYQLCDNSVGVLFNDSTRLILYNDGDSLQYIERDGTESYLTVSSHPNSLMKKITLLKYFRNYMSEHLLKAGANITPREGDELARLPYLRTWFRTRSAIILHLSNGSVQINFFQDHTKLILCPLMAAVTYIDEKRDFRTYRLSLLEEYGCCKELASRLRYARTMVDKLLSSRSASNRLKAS

Compound in the assay: Nc1nc2c(ncn2[C@@H]2O[C@H](COP(=O)(O)OP(=O)(O)OP(=O)(O)O)[C@@H](O)[C@H]2O)c(=O)[nH]1 [guanosine triphosphate]
Description: NP40-soluble protein abundance relative to vehicle (solubility fold change) (ratio); higher = more soluble protein in presence of GTP. The protocol: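 Solubility proteome profiling in Jurkat crude lysate. Lysate was treated with Mg-GTP (0.1-10 mM) for 10 min at room temperature and 3 min at 37 °C, then solubilised with 0.8% NP40 and benzonase, followed by ultracentrifugation. Proteins were quantified by TMT10 LC-MS/MS; the value is the NP40-soluble abundance relative to the NP40-processed vehicle, from 3 independent experiments.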

± gives the standard deviation of the averaged measurements. The list shows a part of the results.

On to STAT5B (UniProt P51692), for which the NP40-soluble protein abundance by setting is: (concentration: 0.1mM) 1.02 ± 0.027; (concentration: 0.5mM) 0.97 ± 0.024; (concentration: 1mM) 0.953 ± 0.029; (concentration: 2mM) 0.922 ± 0.029; (concentration: 4mM) 0.968 ± 0.062; (concentration: 6mM) 0.944 ± 0.059. Moreover, the NP40-soluble protein abundance is, setting by setting: (concentration: 8mM) 0.914 ± 0.037; (concentration: 10mM) 0.89 ± 0.056.

For the target UniProt P62917, the NP40-soluble protein abundance runs as follows: (concentration: 0.1mM) 1.03 ± 0.088; (concentration: 0.5mM) 1.03 ± 0.063; (concentration: 1mM) 1.11 ± 0.17; (concentration: 2mM) 1.01 ± 0.19; (concentration: 4mM) 0.958 ± 0.22; (concentration: 6mM) 0.977 ± 0.23. In addition, the NP40-soluble protein abundance was found to be 0.772 ± 0.2 (concentration: 8mM) and 1.05 ± 0.29 (concentration: 10mM).

In the case of EMD (UniProt P50402), the NP40-soluble protein abundance runs as follows: (concentration: 0.1mM) 0.994 ± 0.055; (concentration: 0.5mM) 1.02 ± 0.043; (concentration: 1mM) 1.09 ± 0.057; (concentration: 2mM) 1.09 ± 0.046; (concentration: 4mM) 1.11 ± 0.082; (concentration: 6mM) 1.06 ± 0.08. In addition, the NP40-soluble protein abundance came out at 1.12 ± 0.055 (concentration: 8mM) and 1.13 ± 0.038 (concentration: 10mM).

Regarding UniProt P61970, the NP40-soluble protein abundance was determined as 1.03 ± 0.1 (concentration: 0.1mM); 0.927 ± 0.091 (concentration: 0.5mM); 1.04 ± 0.12 (concentration: 1mM); 0.886 ± 0.12 (concentration: 2mM); 0.993 ± 0.2 (concentration: 4mM); 0.895 ± 0.094 (concentration: 6mM). In addition, the NP40-soluble protein abundance by setting is: (concentration: 8mM) 0.977 ± 0.19; (concentration: 10mM) 0.858 ± 0.14.

For PLK1 (UniProt P53350), the NP40-soluble protein abundance was determined as 1.05 ± 0.044 (concentration: 0.1mM); 1.01 ± 0.075 (concentration: 0.5mM); 0.985 ± 0.048 (concentration: 1mM); 1.01 ± 0.07 (concentration: 2mM); 1.05 ± 0.074 (concentration: 4mM); 0.989 ± 0.047 (concentration: 6mM). The NP40-soluble protein abundance stood at 1.07 ± 0.076 (concentration: 8mM) and 1.08 ± 0.051 (concentration: 10mM).
